In patent US12667595B2, “Composition for preventing, improving or treating benign prostatic hyperplasia or alopecia, comprising heat-killed probiotics as active ingredient” (BEREUM CO., LTD, priority 2020, dated 2026):

Experiment: Body weight of rat groups in the benign prostatic hyperplasia animal model
Type: in vivo, male Wister rats
Details: BPH rats, after four weeks of daily oral administration; mean±standard error (n=8)

With `CC(C)(C)NC(=O)[C@H]1CC[C@H]2[C@@H]3CC[C@H]4NC(=O)C=C[C@]4(C)[C@H]3CC[C@]12C` [BPH+Fi, finasteride] the “Final body weight” value was 296.934 ± 9.31 g.
